Our source for the TEAD-luciferase reporter activity values is the supplement of paper PMC10735217.

This assay concerns HEK293A TEAD-LUC reporter. The assay can be described thus: TEAD-luciferase reporter activity (YAP activation), robust Z score vs plate; higher = stronger YAP/TEAD activation. The note with it: 24 h.

Counter-ions that a name gives are not always drawn. This is one part of the list. This data set is noisy: repeats of one test often differ as much as different tests do.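 The human kidney-derived cells carry a stably integrated construct of eight TEAD-binding elements driving luciferase, read by luminescence in a drug-repurposing library screen. A compound counts as a hit when its signal is more than five robust Z scores above the plate mean.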

In the case of `CO[C@H]1/C=C/O[C@@]2(C)Oc3c(C)c(O)c4c(O)c(cc([O-])c4c3C2=O)NC(=O)/C(C)=C\C=C\[C@H](C)[C@H](O)[C@@H](C)[C@@H](O)[C@@H](C)[C@H](OC(C)=O)[C@@H]1C` [rifamycin SV, Cosmo], the TEAD-luciferase reporter activity was inactive: -0.188 (compound concentration: 200 nM) and inactive: -0.243 (compound concentration: 10 uM).
For `CO[C@H]1/C=C/O[C@@]2(C)Oc3c(C)c(O)c4c(O)c(cc([O-])c4c3C2=O)NC(=O)/C(C)=C\C=C\[C@H](C)[C@H](O)[C@@H](C)[C@@H](O)[C@@H](C)[C@H](OC(C)=O)[C@@H]1C` [rifamycin SV], where the note is “compound concentration: 2 uM”, the TEAD-luciferase reporter activity was inactive: -1.57.
Take `COc1cccc2c1OC(CNCCN1C(=O)CC3(CCCC3)CC1=O)CO2` (centres undefined): the TEAD-luciferase reporter activity is inactive: 0.995 (compound concentration: 200 nM), inactive: -0.955 (compound concentration: 2 uM) and inactive: 0.472 (compound concentration: 10 uM).
`CN1CCCN=C1/C=C/c1cccs1` [Pyrantel pamoate]: the TEAD-luciferase reporter activity (compound concentration: 2 uM) was inactive: -2.17.
Turning to `CN1CCCN=C1/C=C/c1cccs1`, the TEAD-luciferase reporter activity is, setting by setting: (compound concentration: 200 nM) inactive: -0.335; (compound concentration: 10 uM) inactive: 2.28.
As for `COc1ccc(C(=O)N2CC3(Cc4ccccc4N(C(C)=O)C3)C2)cc1`, the TEAD-luciferase reporter activity (compound concentration: 200 nM) is inactive: 0.599 and the TEAD-luciferase reporter activity (compound concentration: 10 uM) is inactive: 4.41.
In the case of `CC1C(N)CN1c1c(F)cc2c(=O)c(C(=O)O)cn(C3CC3)c2c1Cl` (centres undefined), the TEAD-luciferase reporter activity was inactive: 0.699 (compound concentration: 200 nM), inactive: -1.09 (compound concentration: 2 uM) and inactive: 0.356 (compound concentration: 10 uM).
For `Cc1cc(-c2ccn3c(-c4ccc(CC(=O)Nc5cccc(C(F)(F)F)c5)c(F)c4)cnc3c2)ccn1`, in that order: inactive: -0.386, inactive: -2.82 and inactive: 0.319.
As for `COc1ccc(C(=O)Nc2ccc(S(=O)(=O)NC(CC#CCN3CCOCC3)C(=O)O)cc2)cc1` (centres undefined), the TEAD-luciferase reporter activity runs as follows: (compound concentration: 200 nM) inactive: -1.48; (compound concentration: 2 uM) inactive: -0.376; (compound concentration: 10 uM) inactive: 2.83.
In the case of `COc1cc([S+](C)[O-])ccc1-c1nc2cnccc2[nH]1` (centres undefined) [Isomazole hydrochloride], the TEAD-luciferase reporter activity is inactive: -0.6 (compound concentration: 200 nM), inactive: 0.879 (compound concentration: 2 uM) and inactive: 0.181 (compound concentration: 10 uM).
Turning to `CNCCC1=Cc2ccccc2N(C)c2ccccc21`, the TEAD-luciferase reporter activity (compound concentration: 200 nM) is inactive: -0.0409, the TEAD-luciferase reporter activity (compound concentration: 2 uM) is inactive: -0.963 and the TEAD-luciferase reporter activity (compound concentration: 10 uM) is inactive: -0.0817.
With `OC[C@H]1OC(O)C[C@@H](O)[C@@H]1O` (some centres undefined) [2-Deoxyglucose], the TEAD-luciferase reporter activity is, setting by setting: (compound concentration: 200 nM) inactive: 1.3; (compound concentration: 2 uM) inactive: -1.76; (compound concentration: 10 uM) inactive: -0.129.
For `Cc1c2cc[n+](C)cc2c(C)c2c1[nH]c1ccc(O)cc12` [Elliptinium acetate], the TEAD-luciferase reporter activity runs as follows: (compound concentration: 200 nM) inactive: -2.03; (compound concentration: 2 uM) inactive: 0.345; (compound concentration: 10 uM) inactive: -1.01.
Turning to `COc1cc(Nc2nc3ccccc3nc2NS(=O)(=O)c2ccc(NC(=O)c3ccc(C)c(OC)c3)cc2)cc(OC)c1`, for the setting “compound concentration: 2 uM”, the TEAD-luciferase reporter activity was inactive: 1.07.
`CNC(=O)[C@H](Cc1c[nH]c2ccccc12)NC(=O)[C@@H](CC(=O)NO)CC(C)C` [Ilomastat]: the TEAD-luciferase reporter activity (compound concentration: 2 uM) is inactive: -0.753.
For `CNC(=O)[C@H](Cc1c[nH]c2ccccc12)NC(=O)[C@@H](CC(=O)NO)CC(C)C`, the TEAD-luciferase reporter activity is inactive: -1.54 (compound concentration: 200 nM) and inactive: 3.76 (compound concentration: 10 uM).
As to `CC(=O)SCCC(=O)N1[C@@H](C)CCC[C@H]1C(=O)O` [Metiapril], the TEAD-luciferase reporter activity (compound concentration: 200 nM) was inactive: -2.31, the TEAD-luciferase reporter activity (compound concentration: 2 uM) is inactive: -0.873 and the TEAD-luciferase reporter activity (compound concentration: 10 uM) is inactive: -1.4.
Taken in the same sequence, the figures for `C1=CCC2(CC1)COC(c1ccco1)OC2` (centres undefined) [Ulinastatin] were inactive: -1.01, inactive: 0.656 and inactive: -1.23.
`CN1[C@@H]2CCC[C@H]1C[C@@H](NC(=O)c1nn(C)c3ccccc13)C2` [Granisetron??Hydrochloride]: the TEAD-luciferase reporter activity (compound concentration: 200 nM) was inactive: -2.11.
Regarding `CN1[C@@H]2CCC[C@H]1C[C@@H](NC(=O)c1nn(C)c3ccccc13)C2` [Granisetron hydrochloride], the TEAD-luciferase reporter activity (compound concentration: 2 uM) was inactive: -2.07.
For the compound `C[C@@H](NC(=O)[C@H]1C[C@]1(C)c1ccc(C(F)(F)F)cc1)c1cc(F)c(NS(C)(=O)=O)c(F)c1`, the TEAD-luciferase reporter activity is, setting by setting: (compound concentration: 200 nM) inactive: 0.25; (compound concentration: 2 uM) inactive: -0.439; (compound concentration: 10 uM) inactive: -0.134.
For the compound `O=c1cc[nH]c(=O)[nH]1` [Uracil], under “compound concentration: 2 uM”, the TEAD-luciferase reporter activity was inactive: -1.28.
With `O=c1cc[nH]c(=O)[nH]1`, the TEAD-luciferase reporter activity was inactive: -1.17 (compound concentration: 200 nM) and inactive: -0.222 (compound concentration: 10 uM).
Taken in the same sequence, the figures for `CC(C)CCN1CCC2(C1)C(=O)N(c1ccccc1)c1ccccc12` (centres undefined) were inactive: -3.27 and inactive: -0.686.
As to `O=C(Nc1ccccc1)OCC(CN1CCCCC1)OC(=O)Nc1ccccc1` (centres undefined), the TEAD-luciferase reporter activity is, setting by setting: (compound concentration: 200 nM) inactive: -1.9; (compound concentration: 2 uM) inactive: 2.61; (compound concentration: 10 uM) inactive: 0.846.
For the compound `Clc1ccc(CCC(Cn2ccnc2)Sc2c(Cl)cccc2Cl)cc1` (centres undefined) [butoconazole], the TEAD-luciferase reporter activity (compound concentration: 200 nM) is inactive: 1.14, the TEAD-luciferase reporter activity (compound concentration: 2 uM) was inactive: -0.983 and the TEAD-luciferase reporter activity (compound concentration: 10 uM) was inactive: 0.57.
Take `C=C(c1c(Cl)ccc(Cl)c1OCC(O)CNC(C)C)n1ccnc1` (centres undefined): the TEAD-luciferase reporter activity is, setting by setting: (compound concentration: 200 nM) inactive: 0.0974; (compound concentration: 2 uM) inactive: 2.01; (compound concentration: 10 uM) inactive: 0.247.
For `NNc1nnc(NN)c2ccccc12`, the TEAD-luciferase reporter activity was inactive: -2.26 (compound concentration: 200 nM), inactive: -3.27 (compound concentration: 2 uM) and inactive: -1.78 (compound concentration: 10 uM).
On to `CCCCn1c(=O)c(NC(=O)Nc2c(C(C)C)cc(N)cc2C(C)C)c(-c2cccc(OCCCO)c2)c2cccnc21`, for which the TEAD-luciferase reporter activity (compound concentration: 200 nM) is inactive: 0.0881 and the TEAD-luciferase reporter activity (compound concentration: 2 uM) was inactive: -1.13.
As for `CCCCCCCCCCCCCCCC(=O)OCC(COC(=O)CCCCCCCCCCCCCCC)(COC(=O)CCCCCCCCCCCCCCC)NC(=O)CNC(=O)CC[C@H](NC(=O)c1ccc(N(C)Cc2cnc3nc(N)nc(N)c3n2)cc1)C(=O)O` [MTX-gamma-GTP-3], the TEAD-luciferase reporter activity reads like this: (compound concentration: 200 nM) inactive: -1.56; (compound concentration: 2 uM) inactive: -0.571; (compound concentration: 10 uM) inactive: 0.0218.
